The data set is described as follows: Extracellular estradiol concentration in culture medium (competitive immunoassay). Further details: species or system Nicotiana benthamiana.

For `C[C@]12CC[C@@H]3c4ccc(O)cc4CC[C@H]3[C@@H]1CC[C@@H]2O` [estradiol, 17-β-estradiol], where the note is “XVE and CMViva bioreactor cultures, after induction”, the “extracellular estradiol concentration after depletion” value is 0.8 µM. Besides, under “XVE and CMViva bioreactor cultures, before depletion”, the “extracellular estradiol concentration at induction” value is 9.3 µM. Further, the “time to depletion of estradiol from culture broth” value (XVE and CMViva culture broths) is at most 24 h. For the same molecule, the extracellular estradiol concentration (wild type N. benthamiana cells in flask, estradiol added 10 days after inoculation) is 7.84 to 9.08 µM.

(Values after patent US10421973B2, “Chemically inducible cucumber mosaic virus protein expression system” (THE REGENTS OF THE UNIVERSITY OF CALIFORNIA, priority 2006, dated 2019).)
